Laboratory results: PubChem BioAssay AID1259254 (NCATS, 2017)

Assay: 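Finding genes that stop cells copying their DNA twice in one cycle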 (primary screen)
System: human HCT116 colorectal cancer cells
Knock-down reagent: single siRNA against human genes
Timing: 3 days
Read-out: 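Imaged Hoechst DNA stain sorts each cell into a cycle phase by DNA amount; per plate, G2 fraction set to 0% for non-targeting and 100% for GMNN siRNA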
Direction: G2 robust z-score: higher = more G2 cells, more excess DNA replication
Hit rule: 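An siRNA counts as active if its G2 robust z-score lies at least 5 MADs above the screen median; here such calls match roughly 38% of GMNN control or more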
Here is an unselected part of about 59,000 reagents. About 1,550 of them (2.6%) count as active. 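G2 share is only a proxy for re-replication; each gene was hit by three separate siRNAs, and active genes were retested.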 The numbers tell different reagents against one gene apart. Further read-outs or replicates are left out here. Reagent sequences are not shown. The record does not give: the amount of reagent.

Gene,siRNA no.,G2 robust z-score,Outcome
UNC79 (GeneID 57578),1,-0.0741,inactive
UNC79 (GeneID 57578),2,-0.445,inactive
UNC79 (GeneID 57578),3,-0.931,inactive
NIBAN3 (GeneID 199786),1,-0.475,inactive
NIBAN3 (GeneID 199786),2,1.98,inactive
NIBAN3 (GeneID 199786),3,2.47,inactive
HNF4G (GeneID 3174),1,-0.625,inactive
HNF4G (GeneID 3174),2,4.24,inactive
HNF4G (GeneID 3174),3,1.42,inactive
LOC400099 (retired record) (GeneID 400099),1,-0.652,inactive
LOC400099 (retired record) (GeneID 400099),2,-0.583,inactive
LOC400099 (retired record) (GeneID 400099),3,0.371,inactive
ALKBH2 (GeneID 121642),1,-0.653,inactive
ALKBH2 (GeneID 121642),2,-0.498,inactive
ALKBH2 (GeneID 121642),3,-0.875,inactive
LOC729047 (retired record) (GeneID 729047),1,-0.199,inactive
LOC729047 (retired record) (GeneID 729047),2,-0.604,inactive
LOC729047 (retired record) (GeneID 729047),3,-0.321,inactive
IRX4 (GeneID 50805),1,-0.435,inactive
IRX4 (GeneID 50805),2,1.08,inactive
IRX4 (GeneID 50805),3,-0.405,inactive
LDHA (GeneID 3939),1,3.07,inactive
LDHA (GeneID 3939),2,0.175,inactive
LDHA (GeneID 3939),3,-0.356,inactive
WNT16 (GeneID 51384),1,-1.55,inactive
WNT16 (GeneID 51384),2,1.95,inactive
WNT16 (GeneID 51384),3,0.925,inactive
TEX47 (GeneID 219557),1,-0.484,inactive
TEX47 (GeneID 219557),2,-0.048,inactive
TEX47 (GeneID 219557),3,-0.497,inactive
BRI3 (GeneID 25798),1,-0.793,inactive
BRI3 (GeneID 25798),2,-0.328,inactive
BRI3 (GeneID 25798),3,0.0856,inactive
DCLRE1C (GeneID 64421),1,-0.836,inactive
DCLRE1C (GeneID 64421),2,-0.544,inactive
DCLRE1C (GeneID 64421),3,-0.944,inactive
FBXW10 (GeneID 10517),1,-0.581,inactive
FBXW10 (GeneID 10517),2,0.629,inactive
FBXW10 (GeneID 10517),3,0.245,inactive
PPP1R1B (GeneID 84152),1,1.33,inactive
PPP1R1B (GeneID 84152),2,-1.64,inactive
PPP1R1B (GeneID 84152),3,-1.03,inactive
MCM6 (GeneID 4175),1,-0.313,inactive
MCM6 (GeneID 4175),2,-0.829,inactive
MCM6 (GeneID 4175),3,-0.801,inactive
DPT (GeneID 1805),1,-0.975,inactive
DPT (GeneID 1805),2,2.51,inactive
DPT (GeneID 1805),3,0.904,inactive

Quoted from above, 8 entries:
Gene,siRNA no.,G2 robust z-score,Outcome
NIBAN3 (GeneID 199786),2,1.98,inactive
NIBAN3 (GeneID 199786),3,2.47,inactive
HNF4G (GeneID 3174),1,-0.625,inactive
HNF4G (GeneID 3174),2,4.24,inactive
HNF4G (GeneID 3174),3,1.42,inactive
LOC400099 (retired record) (GeneID 400099),1,-0.652,inactive
LOC400099 (retired record) (GeneID 400099),2,-0.583,inactive
LOC400099 (retired record) (GeneID 400099),3,0.371,inactive
